Experimental data published in PubChem BioAssay AID1347423 (Functional Genomics Laboratory (NCATS/FGL), 2020).
Among all 52,000 sequences or so, about 210 (0.4%) were called active.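 How the source made its calls: active means gene whose silencing raises cell survival under the drug, median off-target-corrected z-score across its silencing RNAs 2 or more; inactive means the rest.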 Some of the results follow.

experiment: Resistance to Poly (ADP-Ribose) Polymerase inhibitor: Gene Identification via Genome-wide siRNA Screen; details: mouse BRCA2 R2336H ES cells, olaparib, CellTiter-Glo viability; stronger effect = higher value
Source text: The role of Poly (ADP-Ribose) Polymerase (PARP) proteins in DNA repair has been elegantly utilized for the synthetic lethality-based treatment of BRCA-deficient tumors by PARP inhibitors. PARP inhibitors are now being used for treatment of BRCA-deficient breast and ovarian cancers. […] While several mechanisms of drug resistance have been identified, majority of these tumors develop drug resistance due to unknown causes. To identified novel regulators of chemo-resistance in BRCA2-mutated cells, we performed a genome wide siRNA library screen. We have found ES cells expressing a hypomorphic allele of BRCA2 to be hypersensitive to PAPP inhibitors (such as olaparib). We used ES cells expressing a mutant allele of BRCA2 that has a single amino acid substitution at position 2336 (arginine to histidine, R2336H). The screen was conducted using an Ambion (Thermo) Silencer Mouse Genome siRNA collection. The library targets 17,575 mouse genes with 3 siRNAs per gene. TET2 (E130014J05Rik) was identified as a top candidate.
Transfections were performed in 384 well plates (Corning 3707). Plates were coated with 0.1% gelatin in H2O overnight at ambient temperature. Gelatin solution was aspirated (BioTek EL406) and siRNAs were printed using a Bravo VPrep liquid handler integrated within a BioCel automation platform (Agilent). Cell viability was measured using CellTiter Glo (Promega). For transfections, […] of serum free media containing Lipofectamine RNAiMax […] was added to wells containing siRNA (0.8pmol). Lipid and siRNA were allowed to complex for 45 min at ambient temperature before addition of 1000 cells in DMEM, 30% FBS to yield final transfection mixtures containing 20 nM siRNA in DMEM, 15% FBS. PARPi (olaparib, AZD2281) was added 48 h post-transfection (500 nM) and viability (CellTiter Glo, Promega) was assayed 72 h later on a PerkinElmer Envision 2104 Multilabel plate reader. Ambion Silencer Select Negative Control #2 was incorporated on all screening plates (16 wells) and the median negative control value on each plate was used for normalization. An siRNA targeting Trp53 was used as a positive control. This control yielded a median protective effect of ~1.9 fold versus negative control throughout the screen. The median absolute deviation (MAD) based z-score was calculated for each siRNA. Genes were then ranked by taking the median value for all siRNAs tested against a given gene. Scores were also adjusted for seed-based off-target effects to help deprioritize likely false positives.

Sequence | z-score
GGUUAUAUCCAUGUGACACTT against Nkg7 | inactive: 0.359
CCCAUUCUCAGGGUACUAATT against Apba2bp | inactive: 0.0437
CGAAAACAUUAACCUUGGUTT against Mylip | inactive: 0.0259
GUCUUUACCGACUGGUUAGTT against Ldoc1 | inactive: 0.0531
CCCUUAGGAAUUGAAUAUGTT against 4930413O22Rik | inactive: 0.386
GGUUUCAUGUGACUUUUAUTT against Tgn | inactive: 1.51
GGCCAUAAAGGAAAGAGCUTT against Actr1a | inactive: -0.529
CCCUUCUUCGGGUUUUAACTT against Kcna3 | inactive: -0.000841
GGAAAAACUUCACCUUUGGTT against B3galt1 | inactive: -1.12
GGAUUGAGACCUCACAGUGTT against Gorasp2 | inactive: -0.297
CCUAGAGGAAGAUUUCGAUTT against Cacna1h | inactive: -0.0502
GCUGUCAGCAAAUAAAUGCTT against 1110020P15Rik | inactive: -0.461
CCUAGAAGUCAUUAAGACGTT against 5730438N18Rik | inactive: 0.575
CCUCUGGUUGUAAAAACAUTT against Rpp38 | inactive: 1.15
GCUGUAGUUCCCUGGCCUATT against 2310057N15Rik | inactive: -1.05
GGAUUUUUGCACUCAGUAATT against Olfr1256 | inactive: 0.617
CCUGAAUUGGUACCUCACATT against AI746432 | inactive: -3.34
CCUUACCAUCGUCUUCAAGTT against Cmklr1 | inactive: 0.503
CGAUGACAUCAGGAUUGUUTT against Gpr128 | active: 1.23
GCUGUCGACUUUAAAAGGUTT against Pcdhga7 | inactive: 0.132
GGAUACGAUUGAACGGCUGTT against Rac3 | inactive: 0.0993
GUUGGUUGUAGGUACUUAUTT against Olfr487 | inactive: 0.198
CCUGUCAAAGUUGUAAAAGTT against Zar1 | inactive: -0.837
GGUCAAGUGUAAGAUGUUUTT against 1700001E16Rik | inactive: -0.492
GCUGUGUCACUACUUCGAUTT against Rpp40 | inactive: -1.3
GGUGUCUGAUUCUAACAUATT against Catsper4 | inactive: 0.662

Sequence | z-score
CGGUUCUGGGAAUUCUUUGTT against Olfr624 | inactive: -0.000744
GGCCGAUAUGGUGUUUAGATT against Tomm40l | inactive: -0.11
GCAUCACUGCCACAGUGCATT against Olfr159 | inactive: 0.437
GGCGAGAAAUUCUUCACAUTT against Plxna3 | inactive: -0.643
GCAGUGUUGAGACCAACAUTT against C1qtnf3 | inactive: -0.0384
GGAAGAGAUAAGAAGAGAGTT against Faim | inactive: -1.67
GGAUAGAGUUAAUGAAAAGTT against 1200014M14Rik | inactive: 0.822
GGCCAUCUUUCUAUACAAATT against Bcl10 | inactive: 0.0528
GGAAGAGCACAUCAUUGCATT against LOC212871 | inactive: 0.17
GGUGCCAGAAGAUUUACGATT against Fmr1 | inactive: 1.38
CCUACGUGCUGUGAGAUUCTT against Ccl25 | inactive: 0.694
GGCCAAAGGCAUCAGGCAUTT against 1700020F09Rik | inactive: 0.202
GGGCCAGUCAUUGAAGAUUTT against U2af2 | inactive: -1.94
GGUGUACAACAUCAGCGACTT against Fads1 | inactive: 1.06
GCCCGUGUCAUCAUUUUCUTT against Doxl2 | inactive: -0.00358
CGAGGUGACCUACAAGAUUTT against AI481750 | inactive: 0.982
GGUGGAGUUUCUCAAAAGCTT against Kcnc3 | inactive: -1.79
GGCAUCCAAGCAAAAUGGCTT against Eng | inactive: 2.09
GGUUAUUCAAAAAUGCAACTT against D12Wsu95e | inactive: 0.66
CGGGUCCAGCCAAUUGCAUTT against Plxnc1 | inactive: 0.134
GCUUGGGUCAUAGGGAUGATT against Olfr1288 | inactive: -0.594
GACAUUUCGACCUUCCAGUTT against 2310002F18Rik | inactive: 0.553
CACUCUUGAUACAAAUGAGTT against Ifna6T | inactive: 0.264
GGAAUUGUCAGGUCUUGAATT against 0610009B10Rik | inactive: -2.29
GCAGGACUUGACAAUAGUCTT against Itgb1bp2 | inactive: 0.487
GGCAACUUUAUACACAAACTT against V1rc5 | inactive: 0.506

Sequence | z-score
GGAAGAAUGUGAUGACUCATT against Zfp11 | inactive: 0.172
GCUGGCUGAAACAUCUACCTT against Trappc1 | inactive: 0.0507
GGGAGAAGAAUUUGAACAGTT against Ak1 | inactive: -1.68
GGUAGAUUUGGAAUAAGCCTT against 5330440M15Rik | inactive: -0.743
GGUUAAAGAAGAUAAUCAGTT against Ccdc2 | inactive: 0.756
GGCUGGAGUAGAAGAACUGTT against Hsbp1 | inactive: -1.87
CCUAUGAAUCUUACAGGACTT against Zfp422-rs1 | inactive: -0.207
CCCAAUGGCACUCUAUAUCTT against 2900042E01Rik | inactive: -0.436
GCAUCAUGAUACGAAGCAGTT against 2310047I15Rik | inactive: -0.79
GGUGGAACACAUAUUUUAATT against Tbc1d13 | inactive: 1.98
GGUACAUAUCCAUUCACAGTT against Cnr1 | inactive: 1.56
CGUUUGGGAUCGAAAGUCATT against Tbl1x | inactive: -1.67
CGGAUCAUCAUGUACACUGTT against Tpsg1 | inactive: 1.86
GGACUGACUGGCUUCAUUGTT against Arl6ip2 | inactive: -2.02
GGCCAACUGGAGAUAGAUATT against 1500001M20Rik | inactive: 0.202
CCAACUUCGAUGCUGAGAGTT against Anxa2 | inactive: -0.64
GCCUAAGGAGUUUCUGAUATT against 2410015A16Rik | inactive: -0.0616
GGAGAACUUCAAAACUUUUTT against Tbx1 | inactive: -0.104
GCCUCAAUGGCACUCAAAUTT against Mdc1 | inactive: 0.141
GGCAUGUCGAUCUGACCUUTT against Kcnc1 | inactive: 0.224
GGGAAAAUCCACUUUUAAGTT against Hs2st1 | inactive: 0.723
GGGUGGUGUUCCAUGACAGTT against Ubp1 | inactive: -0.375
GGCAAAGAAGGAGAAAGUATT against Cd209c | inactive: -0.492
GCAAAACCUACUGCGUGGATT against 2410195B05Rik | inactive: 0.682
CCAAUUACCUGAAUAAAGCTT against Epb4.1l5 | inactive: 0.256
GGUUCUGGAGCAAAUCCACTT against AI326477 | inactive: -0.179

Sequence | z-score
GGAAAAGAAAUUUGCUGAUTT against AI313915 | inactive: -0.663
GACUCAUUCUGCAAUGAAGTT against Ifna5 | inactive: 0.425
GGUAUUUAAACUCUUGGGATT against Mpdu1 | inactive: -0.0462
GGAGAAAGCCAAAUUUAACTT against Slc17a6 | inactive: 0.724
GCUAAUUCCCUGGCCUCAATT against Tro | inactive: 0.273
GGUGAAGUUGCCAAGAAAGTT against Reg3g | inactive: 0.207
GGAGUUCAUUAUCUUGGCUTT against Rsad1 | inactive: 0.813
GGUUGGUGUAUUCUGGCAGTT against 5031400M07Rik | inactive: -0.0226
GGCUCCAGUCCGUUUUGAATT against Nrarp | inactive: 0.521
GGUACUGCCAUGUAGGAAATT against A330008L17Rik | inactive: -0.618
GGCAGACCCAUAAUUAAUCTT against 2810429K17Rik | inactive: 1.15
GCUUCAUCUCCUAAAGCCCTT against Ring1 | inactive: 0.164
GCAUUAAAGUGCUGUUCUUTT against 4930527D15Rik | inactive: 1.08
CCUCACCAAACCUUGUUGATT against Cd300lg | inactive: 0.00582
GGAAGACCCACAAAGGCUUTT against Rpl3l | inactive: -0.901
CCAAGUGGUACGACCAUGATT against Gcnt3 | inactive: -1.45
GGAUUUUGUUCCUCAAGAUTT against Pip5k2a | inactive: 0.306
GGUACUAAACACCAACUCCTT against B230315M08Rik | active: 1.28
GGAGAGUACAAGGUAUCUUTT against Map3k7ip2 | inactive: -0.967
GGGCAAUCGACUGAGAAUUTT against A530050P17Rik | inactive: -1.87
CCGAAUUAAGAAAGUGGUUTT against Ap1g1 | inactive: 0.917
CGAAAAUAUGGAUACUACUTT against 1810043M15Rik | inactive: 0.607
GCUCAUAAAGCUGUAUAAATT against Zik1 | inactive: -0.513
GCGCGACCUUCGAAUGUAATT against Rnf5 | inactive: -1.97
GCGAUUACUGGAGAUAGAGTT against U2af1-rs1 | inactive: 1.08
